Results reported in the supplement of paper PMC6411743.
± gives the standard deviation of the averaged measurements. This is a selection; strong and weak results do not stand in their true shares.

Amino acid sequences for entries named in this document (tags omitted). A change or cut given only in a name is not applied to a line headed by its entry.
UniProt P25789: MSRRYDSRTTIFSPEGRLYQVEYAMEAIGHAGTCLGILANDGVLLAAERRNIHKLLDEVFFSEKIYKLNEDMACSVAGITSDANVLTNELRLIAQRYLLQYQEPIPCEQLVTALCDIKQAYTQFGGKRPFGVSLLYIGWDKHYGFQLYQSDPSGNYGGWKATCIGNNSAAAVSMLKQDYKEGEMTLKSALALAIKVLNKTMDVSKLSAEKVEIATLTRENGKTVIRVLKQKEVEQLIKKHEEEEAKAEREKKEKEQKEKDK
UniProt P30043: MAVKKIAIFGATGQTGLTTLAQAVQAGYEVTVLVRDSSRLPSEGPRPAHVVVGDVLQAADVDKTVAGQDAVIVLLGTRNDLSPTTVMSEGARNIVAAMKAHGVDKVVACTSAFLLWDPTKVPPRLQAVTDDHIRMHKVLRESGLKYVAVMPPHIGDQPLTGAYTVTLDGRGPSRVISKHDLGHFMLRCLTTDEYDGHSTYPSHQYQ
UniProt P35249, whole entry: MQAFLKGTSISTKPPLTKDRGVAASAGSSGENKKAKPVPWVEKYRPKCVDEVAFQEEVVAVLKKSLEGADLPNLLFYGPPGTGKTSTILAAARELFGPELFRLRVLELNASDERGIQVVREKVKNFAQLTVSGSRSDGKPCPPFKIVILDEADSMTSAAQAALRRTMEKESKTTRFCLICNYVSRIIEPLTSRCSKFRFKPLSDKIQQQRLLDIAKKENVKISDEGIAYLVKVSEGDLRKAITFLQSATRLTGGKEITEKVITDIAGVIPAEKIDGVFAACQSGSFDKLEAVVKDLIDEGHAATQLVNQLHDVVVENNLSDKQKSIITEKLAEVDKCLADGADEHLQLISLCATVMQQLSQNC
UniProt P30086: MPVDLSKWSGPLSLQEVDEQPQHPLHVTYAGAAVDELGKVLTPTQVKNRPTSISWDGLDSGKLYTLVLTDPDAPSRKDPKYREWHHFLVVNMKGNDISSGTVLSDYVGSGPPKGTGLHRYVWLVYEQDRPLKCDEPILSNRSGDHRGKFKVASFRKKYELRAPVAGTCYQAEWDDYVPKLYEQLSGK
UniProt P27361, whole entry: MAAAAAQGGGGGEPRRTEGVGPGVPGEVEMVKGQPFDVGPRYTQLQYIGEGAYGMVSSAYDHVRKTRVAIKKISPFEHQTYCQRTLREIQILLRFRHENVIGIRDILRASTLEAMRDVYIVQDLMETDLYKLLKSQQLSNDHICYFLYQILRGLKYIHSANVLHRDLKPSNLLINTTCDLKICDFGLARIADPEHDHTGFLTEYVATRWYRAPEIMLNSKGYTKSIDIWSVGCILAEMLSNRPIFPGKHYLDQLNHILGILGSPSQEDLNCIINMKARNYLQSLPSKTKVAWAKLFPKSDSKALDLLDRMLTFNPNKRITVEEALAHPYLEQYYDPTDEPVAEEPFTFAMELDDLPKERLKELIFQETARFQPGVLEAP
UniProt P17174: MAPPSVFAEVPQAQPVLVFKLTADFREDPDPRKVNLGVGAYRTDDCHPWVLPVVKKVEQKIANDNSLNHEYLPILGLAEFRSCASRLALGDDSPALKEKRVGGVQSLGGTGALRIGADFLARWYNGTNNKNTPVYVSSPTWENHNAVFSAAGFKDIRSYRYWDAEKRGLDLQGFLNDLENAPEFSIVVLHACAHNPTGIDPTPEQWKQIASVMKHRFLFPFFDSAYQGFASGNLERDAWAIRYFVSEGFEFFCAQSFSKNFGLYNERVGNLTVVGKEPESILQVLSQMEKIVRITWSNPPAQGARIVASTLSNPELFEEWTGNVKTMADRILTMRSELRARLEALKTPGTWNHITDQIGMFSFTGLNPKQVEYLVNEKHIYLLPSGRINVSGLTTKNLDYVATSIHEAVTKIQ
UniProt P23458: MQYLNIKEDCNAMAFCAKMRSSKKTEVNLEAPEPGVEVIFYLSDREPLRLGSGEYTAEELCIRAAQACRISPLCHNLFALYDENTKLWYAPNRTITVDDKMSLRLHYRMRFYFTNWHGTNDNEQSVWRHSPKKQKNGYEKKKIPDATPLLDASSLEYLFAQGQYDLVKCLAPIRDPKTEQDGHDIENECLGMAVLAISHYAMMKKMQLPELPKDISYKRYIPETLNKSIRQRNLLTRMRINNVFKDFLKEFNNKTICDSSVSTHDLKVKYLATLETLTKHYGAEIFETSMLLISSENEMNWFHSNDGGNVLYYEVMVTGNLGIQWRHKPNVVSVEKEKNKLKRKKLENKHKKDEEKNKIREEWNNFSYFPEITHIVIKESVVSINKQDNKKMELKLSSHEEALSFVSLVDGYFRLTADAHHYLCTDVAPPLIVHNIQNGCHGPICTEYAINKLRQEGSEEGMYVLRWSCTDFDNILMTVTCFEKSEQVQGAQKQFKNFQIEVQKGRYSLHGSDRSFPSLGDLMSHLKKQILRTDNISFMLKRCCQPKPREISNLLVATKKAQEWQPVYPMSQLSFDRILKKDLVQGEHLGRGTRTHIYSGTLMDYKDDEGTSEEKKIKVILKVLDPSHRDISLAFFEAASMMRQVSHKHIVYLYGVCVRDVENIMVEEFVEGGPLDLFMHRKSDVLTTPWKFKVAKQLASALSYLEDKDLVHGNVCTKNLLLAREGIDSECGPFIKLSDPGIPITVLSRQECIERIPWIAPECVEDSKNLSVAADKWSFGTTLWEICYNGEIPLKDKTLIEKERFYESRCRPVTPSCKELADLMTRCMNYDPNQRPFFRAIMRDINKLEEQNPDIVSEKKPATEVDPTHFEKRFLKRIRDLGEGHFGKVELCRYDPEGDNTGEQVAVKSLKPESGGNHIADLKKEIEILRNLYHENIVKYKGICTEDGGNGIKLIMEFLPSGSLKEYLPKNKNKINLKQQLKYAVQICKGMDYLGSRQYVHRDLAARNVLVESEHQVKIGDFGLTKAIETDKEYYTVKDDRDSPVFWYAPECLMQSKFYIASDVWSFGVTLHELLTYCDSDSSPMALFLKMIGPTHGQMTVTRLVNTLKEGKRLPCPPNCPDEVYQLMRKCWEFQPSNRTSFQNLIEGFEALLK
UniProt P23743: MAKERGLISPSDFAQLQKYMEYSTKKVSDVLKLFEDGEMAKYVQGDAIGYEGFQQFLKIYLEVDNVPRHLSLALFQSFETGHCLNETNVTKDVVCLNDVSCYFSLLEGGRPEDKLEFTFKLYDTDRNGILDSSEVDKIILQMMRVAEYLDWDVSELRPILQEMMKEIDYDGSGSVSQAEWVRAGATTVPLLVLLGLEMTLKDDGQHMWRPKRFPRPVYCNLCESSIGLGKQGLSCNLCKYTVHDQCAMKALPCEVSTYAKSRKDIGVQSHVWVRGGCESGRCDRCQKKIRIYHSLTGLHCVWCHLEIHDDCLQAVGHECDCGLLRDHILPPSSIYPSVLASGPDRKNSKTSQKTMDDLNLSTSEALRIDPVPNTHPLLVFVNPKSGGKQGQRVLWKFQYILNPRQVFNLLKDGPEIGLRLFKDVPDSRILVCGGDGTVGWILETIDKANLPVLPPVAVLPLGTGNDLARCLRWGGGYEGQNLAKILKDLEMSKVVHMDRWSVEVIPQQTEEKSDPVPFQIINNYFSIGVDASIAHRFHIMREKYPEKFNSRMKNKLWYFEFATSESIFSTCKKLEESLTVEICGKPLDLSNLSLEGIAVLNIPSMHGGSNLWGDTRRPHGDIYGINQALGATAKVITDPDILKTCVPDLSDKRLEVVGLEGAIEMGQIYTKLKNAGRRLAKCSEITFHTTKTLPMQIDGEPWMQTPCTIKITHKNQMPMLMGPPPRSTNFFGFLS
UniProt P37837: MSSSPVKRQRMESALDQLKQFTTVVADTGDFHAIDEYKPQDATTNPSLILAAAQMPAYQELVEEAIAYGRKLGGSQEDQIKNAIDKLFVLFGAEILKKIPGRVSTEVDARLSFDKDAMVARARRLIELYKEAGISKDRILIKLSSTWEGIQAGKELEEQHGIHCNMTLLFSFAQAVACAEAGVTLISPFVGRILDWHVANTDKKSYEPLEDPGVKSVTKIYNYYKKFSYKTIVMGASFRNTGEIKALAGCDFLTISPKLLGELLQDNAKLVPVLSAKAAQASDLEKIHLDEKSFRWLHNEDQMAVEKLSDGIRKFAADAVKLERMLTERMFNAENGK
UniProt P23229: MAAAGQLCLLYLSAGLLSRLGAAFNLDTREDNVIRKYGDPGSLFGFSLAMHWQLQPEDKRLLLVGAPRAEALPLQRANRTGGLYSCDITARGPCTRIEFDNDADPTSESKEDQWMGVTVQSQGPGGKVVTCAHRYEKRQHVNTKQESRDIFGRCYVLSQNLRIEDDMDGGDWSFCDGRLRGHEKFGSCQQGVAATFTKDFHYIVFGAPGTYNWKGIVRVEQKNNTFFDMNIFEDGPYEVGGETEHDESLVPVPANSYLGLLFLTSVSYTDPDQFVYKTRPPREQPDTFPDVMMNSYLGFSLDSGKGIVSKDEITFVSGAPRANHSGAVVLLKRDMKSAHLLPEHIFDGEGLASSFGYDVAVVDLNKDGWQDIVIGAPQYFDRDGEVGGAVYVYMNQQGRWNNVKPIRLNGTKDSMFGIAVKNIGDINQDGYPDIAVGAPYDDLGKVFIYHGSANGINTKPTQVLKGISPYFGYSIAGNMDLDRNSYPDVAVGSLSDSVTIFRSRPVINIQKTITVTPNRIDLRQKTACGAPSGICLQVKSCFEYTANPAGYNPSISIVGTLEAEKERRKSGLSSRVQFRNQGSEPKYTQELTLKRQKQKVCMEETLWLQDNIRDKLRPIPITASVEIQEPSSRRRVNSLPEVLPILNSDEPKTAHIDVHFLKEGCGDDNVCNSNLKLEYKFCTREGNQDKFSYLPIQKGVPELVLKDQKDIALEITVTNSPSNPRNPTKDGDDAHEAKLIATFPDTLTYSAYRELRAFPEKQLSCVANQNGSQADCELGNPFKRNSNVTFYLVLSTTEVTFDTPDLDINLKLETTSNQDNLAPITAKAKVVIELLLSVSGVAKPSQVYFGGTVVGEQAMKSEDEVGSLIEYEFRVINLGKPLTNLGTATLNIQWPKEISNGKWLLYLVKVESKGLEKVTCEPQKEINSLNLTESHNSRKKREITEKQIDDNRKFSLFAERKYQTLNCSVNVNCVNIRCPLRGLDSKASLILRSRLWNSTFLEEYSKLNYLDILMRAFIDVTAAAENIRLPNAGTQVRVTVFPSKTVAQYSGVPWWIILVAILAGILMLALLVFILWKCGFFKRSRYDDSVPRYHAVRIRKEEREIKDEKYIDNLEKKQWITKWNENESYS
UniProt P23921: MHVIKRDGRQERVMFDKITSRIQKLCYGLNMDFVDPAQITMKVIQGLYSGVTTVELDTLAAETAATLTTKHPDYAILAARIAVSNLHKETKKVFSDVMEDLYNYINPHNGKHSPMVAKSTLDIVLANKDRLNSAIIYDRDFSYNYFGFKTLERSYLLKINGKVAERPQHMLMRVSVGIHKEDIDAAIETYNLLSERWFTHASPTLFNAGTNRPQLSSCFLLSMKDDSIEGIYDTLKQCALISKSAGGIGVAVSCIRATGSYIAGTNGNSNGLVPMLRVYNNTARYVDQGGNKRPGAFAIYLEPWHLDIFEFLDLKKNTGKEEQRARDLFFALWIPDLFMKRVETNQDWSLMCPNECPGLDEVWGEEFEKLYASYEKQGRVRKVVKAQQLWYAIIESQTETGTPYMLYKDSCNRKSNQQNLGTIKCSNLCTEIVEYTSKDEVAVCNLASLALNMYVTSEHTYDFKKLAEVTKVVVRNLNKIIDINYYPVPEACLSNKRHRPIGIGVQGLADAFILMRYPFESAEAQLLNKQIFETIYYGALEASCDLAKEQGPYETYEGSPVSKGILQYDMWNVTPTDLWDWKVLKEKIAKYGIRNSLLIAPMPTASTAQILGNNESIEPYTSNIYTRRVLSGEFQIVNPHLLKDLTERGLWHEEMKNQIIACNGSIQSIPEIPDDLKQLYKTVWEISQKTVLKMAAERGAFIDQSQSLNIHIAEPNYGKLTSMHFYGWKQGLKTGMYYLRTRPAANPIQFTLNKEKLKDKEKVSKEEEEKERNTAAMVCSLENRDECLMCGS
UniProt P37802: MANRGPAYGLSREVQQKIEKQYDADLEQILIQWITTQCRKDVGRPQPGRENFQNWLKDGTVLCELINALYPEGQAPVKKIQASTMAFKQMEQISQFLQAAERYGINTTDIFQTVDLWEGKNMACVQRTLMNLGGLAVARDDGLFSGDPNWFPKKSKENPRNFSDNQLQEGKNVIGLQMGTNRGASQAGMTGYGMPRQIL
UniProt P25490, whole entry: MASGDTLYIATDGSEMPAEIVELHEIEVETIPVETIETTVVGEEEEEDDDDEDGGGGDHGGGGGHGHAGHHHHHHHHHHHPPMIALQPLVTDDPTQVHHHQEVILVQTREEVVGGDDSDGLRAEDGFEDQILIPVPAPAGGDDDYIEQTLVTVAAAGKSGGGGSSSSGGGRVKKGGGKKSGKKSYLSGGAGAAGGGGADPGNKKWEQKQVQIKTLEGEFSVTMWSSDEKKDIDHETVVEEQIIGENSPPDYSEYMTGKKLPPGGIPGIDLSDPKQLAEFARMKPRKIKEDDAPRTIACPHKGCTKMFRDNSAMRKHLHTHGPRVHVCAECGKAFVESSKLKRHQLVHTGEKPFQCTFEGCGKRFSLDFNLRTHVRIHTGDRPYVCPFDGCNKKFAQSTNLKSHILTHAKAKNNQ

Compound: Nc1ncnc2c1ncn2[C@@H]1O[C@H](COP(=O)(O)OP(=O)(O)NP(=O)(O)O)[C@@H](O)[C@H]1O [adenylyl imidodiphosphate]
Assay: NP40-soluble protein abundance relative to vehicle (solubility fold change) (ratio); higher = more soluble protein in presence of AMP-PNP
How it was run: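 Data come from three independent experiments in which Dounce-homogenised Jurkat crude lysate was treated at eight concentrations from 0.1 to 10 mM. Treatment ran 10 min at room temperature and then 3 min at 37 °C, after which 0.8% NP40 and benzonase were added for 60 min at 4 °C before ultracentrifugation. The supernatant underwent TMT labelling and LC-MS/MS, and vsn-normalised intensities were expressed as fold change against the detergent-processed vehicle in each replicate.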

Target	NP40-soluble protein abundance (concentration: 1mM)	NP40-soluble protein abundance (concentration: 2mM)	NP40-soluble protein abundance (concentration: 4mM)	NP40-soluble protein abundance (concentration: 6mM)	NP40-soluble protein abundance (concentration: 8mM)	NP40-soluble protein abundance (concentration: 10mM)
TNFAIP3 (UniProt P21580)	1.02 ± 0.0085	0.9908 ± 0.0076	1.01 ± 0.016	0.995 ± 0.049	0.974 ± 0.028	0.973 ± 0.028
UniProt P30203 and related entries	1.024 ± 0.0096	1.01 ± 0.047	1.01 ± 0.012	1.01 ± 0.038	1.02 ± 0.026	1.02 ± 0.014
UniProt P33981 and related entries	1.04 ± 0.027	1.021 ± 0.0069	1.05 ± 0.033	1.018 ± 0.01	1.02 ± 0.034	1.03 ± 0.036
PSMA4 (UniProt P25789)	0.895 ± 0.042	0.868 ± 0.046	0.871 ± 0.094	0.989 ± 0.085	1 ± 0.083	1 ± 0.15
BLVRB (UniProt P30043)	0.984 ± 0.028	0.928 ± 0.081	0.991 ± 0.035	1.04 ± 0.037	1.06 ± 0.032	1.02 ± 0.034
UniProt P19367 and related entries	0.984 ± 0.019	0.883 ± 0.097	0.964 ± 0.03	0.995 ± 0.054	1.03 ± 0.011	0.964 ± 0.013
CD53 (UniProt P19397)	0.999 ± 0.051	1.02 ± 0.1	0.964 ± 0.093	1.06 ± 0.12	1.06 ± 0.12	1.03 ± 0.1
RFC4 (UniProt P35249)	1.05 ± 0.051	1.08 ± 0.014	1.09 ± 0.06	1.14 ± 0.043	1.16 ± 0.082	1.2 ± 0.075
UniProt P30048 and related entries	0.9708 ± 0.0081	0.95 ± 0.025	0.901 ± 0.022	0.874 ± 0.068	0.801 ± 0.083	0.722 ± 0.12
PEBP1 (UniProt P30086)	1.008 ± 0.0089	1.01 ± 0.037	1.01 ± 0.016	1.05 ± 0.039	1.05 ± 0.03	1.05 ± 0.043
UniProt P25398	0.934 ± 0.016	0.955 ± 0.044	0.869 ± 0.053	0.872 ± 0.033	0.81 ± 0.054	0.847 ± 0.049
PIK3R1 (UniProt P27986)	1.03 ± 0.023	1.01 ± 0.027	1.03 ± 0.046	0.955 ± 0.021	0.966 ± 0.013	0.952 ± 0.015
UniProt P27361	0.991 ± 0.06	0.938 ± 0.031	0.974 ± 0.038	1.01 ± 0.082	1.04 ± 0.07	1 ± 0.029
UniProt P20073 and related entries	0.966 ± 0.053	0.996 ± 0.093	0.989 ± 0.069	0.998 ± 0.086	1.04 ± 0.052	0.995 ± 0.096
UniProt P32189 and related entries	0.995 ± 0.015	0.988 ± 0.019	0.993 ± 0.02	0.998 ± 0.039	1 ± 0.018	0.984 ± 0.043
PRDX2 (UniProt P32119)	0.966 ± 0.022	0.918 ± 0.027	0.91 ± 0.028	0.966 ± 0.032	0.947 ± 0.022	0.915 ± 0.031
GOT1 (UniProt P17174)	0.988 ± 0.018	0.954 ± 0.031	0.9656 ± 0.0063	0.97 ± 0.024	0.966 ± 0.019	0.949 ± 0.022
M6PR (UniProt P20645)	1 ± 0.027	1.06 ± 0.14	0.978 ± 0.055	1.07 ± 0.047	1.02 ± 0.036	1.03 ± 0.06
JAK1 (UniProt P23458)	1.18 ± 0.08	1.16 ± 0.11	1.16 ± 0.14	1.11 ± 0.04	1.12 ± 0.084	1.09 ± 0.081
EIF2S2 (UniProt P20042)	1.046 ± 0.0015	1.1 ± 0.039	1.09 ± 0.011	1.16 ± 0.029	1.14 ± 0.05	1.19 ± 0.014
WARS (UniProt P23381)	0.987 ± 0.032	0.959 ± 0.065	0.997 ± 0.027	0.995 ± 0.03	1.02 ± 0.024	0.991 ± 0.023
UniProt P19784	0.962 ± 0.056	0.863 ± 0.086	0.969 ± 0.05	0.972 ± 0.063	1.06 ± 0.023	0.989 ± 0.078
UniProt P35251 and related entries	1.07 ± 0.023	1.13 ± 0.051	1.13 ± 0.05	1.21 ± 0.052	1.18 ± 0.062	1.26 ± 0.038

Retrieved one by one from above (two):
Target	NP40-soluble protein abundance (concentration: 1mM)	NP40-soluble protein abundance (concentration: 2mM)	NP40-soluble protein abundance (concentration: 4mM)	NP40-soluble protein abundance (concentration: 6mM)	NP40-soluble protein abundance (concentration: 8mM)	NP40-soluble protein abundance (concentration: 10mM)
UniProt P30203 and related entries	1.024 ± 0.0096	1.01 ± 0.047	1.01 ± 0.012	1.01 ± 0.038	1.02 ± 0.026	1.02 ± 0.014
RFC4 (UniProt P35249)	1.05 ± 0.051	1.08 ± 0.014	1.09 ± 0.06	1.14 ± 0.043	1.16 ± 0.082	1.2 ± 0.075

Next part

Target	NP40-soluble protein abundance (concentration: 1mM)	NP40-soluble protein abundance (concentration: 2mM)	NP40-soluble protein abundance (concentration: 4mM)	NP40-soluble protein abundance (concentration: 6mM)	NP40-soluble protein abundance (concentration: 8mM)	NP40-soluble protein abundance (concentration: 10mM)
UniProt P18206 and related entries	0.9694 ± 0.0051	1.02 ± 0.058	0.976 ± 0.033	0.985 ± 0.022	0.947 ± 0.039	0.96 ± 0.044
DGKA (UniProt P23743)	1.04 ± 0.018	0.982 ± 0.1	1.06 ± 0.046	1.01 ± 0.022	1.04 ± 0.028	0.992 ± 0.02
UniProt P38398 and related entries	1.01 ± 0.03	1.08 ± 0.054	1.02 ± 0.022	0.993 ± 0.038	0.959 ± 0.018	1.02 ± 0.014
UniProt P37837 and related entries	1.028 ± 0.0097	1.04 ± 0.077	0.966 ± 0.054	1.01 ± 0.028	0.988 ± 0.031	1.01 ± 0.056
GNA15 (UniProt P30679)	0.942 ± 0.051	0.943 ± 0.029	0.947 ± 0.022	0.981 ± 0.043	0.956 ± 0.06	0.965 ± 0.021
TMEM11 (UniProt P17152)	0.943 ± 0.042	0.883 ± 0.09	0.947 ± 0.02	0.931 ± 0.015	0.94 ± 0.037	0.908 ± 0.039
UniProt P22307 and related entries	0.989 ± 0.03	1.01 ± 0.034	0.982 ± 0.025	1.02 ± 0.058	1.03 ± 0.049	1.01 ± 0.072
UniProt P33316 and related entries	0.99 ± 0.026	1 ± 0.013	0.981 ± 0.015	0.993 ± 0.011	0.99 ± 0.016	0.972 ± 0.028
UniProt P18858 and related entries	1.04 ± 0.018	1.04 ± 0.042	1 ± 0.032	0.979 ± 0.016	0.969 ± 0.012	0.966 ± 0.02
UniProt P23443 and related entries	1.01 ± 0.037	1.04 ± 0.05	0.99 ± 0.039	1 ± 0.0034	0.9531 ± 0.0055	1.01 ± 0.03
UniProt P23229 and related entries	1.03 ± 0.054	1.08 ± 0.084	1.03 ± 0.036	1.03 ± 0.049	1 ± 0.038	1.01 ± 0.069
UniProt P20290 and related entries	1.02 ± 0.024	1.08 ± 0.07	1.1 ± 0.043	1.15 ± 0.074	1.19 ± 0.073	1.25 ± 0.082
UniProt P17980 and related entries	0.932 ± 0.041	0.905 ± 0.055	0.906 ± 0.058	0.87 ± 0.1	0.877 ± 0.082	0.876 ± 0.1
RRM1 (UniProt P23921)	0.992 ± 0.037	0.877 ± 0.088	0.951 ± 0.031	0.955 ± 0.076	0.989 ± 0.063	0.928 ± 0.08
TAGLN2 (UniProt P37802)	0.942 ± 0.02	0.954 ± 0.017	0.9566 ± 0.0059	0.941 ± 0.029	0.942 ± 0.086	0.89 ± 0.061
YY1 (UniProt P25490)	1.033 ± 0.0055	1.07 ± 0.043	1.03 ± 0.041	1.07 ± 0.028	1.09 ± 0.06	1.08 ± 0.078
GNL1 (UniProt P36915)	0.987 ± 0.055	0.946 ± 0.017	0.987 ± 0.049	1 ± 0.048	1.03 ± 0.036	1.02 ± 0.034
PPIB (UniProt P23284)	0.9991 ± 0.0043	0.997 ± 0.021	0.975 ± 0.02	1.09 ± 0.044	1.08 ± 0.025	1.08 ± 0.022
PTPN1 (UniProt P18031)	0.9727 ± 0.0064	0.971 ± 0.01	0.964 ± 0.016	0.9604 ± 0.0079	0.95 ± 0.026	0.954 ± 0.038
UniProt P25445 and related entries	0.97 ± 0.01	1.09 ± 0.11	0.984 ± 0.033	1.04 ± 0.038	0.999 ± 0.014	1.05 ± 0.029
UniProt P32519 and related entries	0.996 ± 0.0076	1.04 ± 0.021	1.001 ± 0.0087	0.991 ± 0.029	0.932 ± 0.013	0.994 ± 0.038
UniProt P17812	0.932 ± 0.03	0.873 ± 0.06	0.91 ± 0.033	0.96 ± 0.077	0.97 ± 0.04	0.924 ± 0.044
